The results in this text go back to PMC4760310.

Protein sequences, listed by entry. Tags and fused reporters are not part of them.
UniProt Q9VIF1: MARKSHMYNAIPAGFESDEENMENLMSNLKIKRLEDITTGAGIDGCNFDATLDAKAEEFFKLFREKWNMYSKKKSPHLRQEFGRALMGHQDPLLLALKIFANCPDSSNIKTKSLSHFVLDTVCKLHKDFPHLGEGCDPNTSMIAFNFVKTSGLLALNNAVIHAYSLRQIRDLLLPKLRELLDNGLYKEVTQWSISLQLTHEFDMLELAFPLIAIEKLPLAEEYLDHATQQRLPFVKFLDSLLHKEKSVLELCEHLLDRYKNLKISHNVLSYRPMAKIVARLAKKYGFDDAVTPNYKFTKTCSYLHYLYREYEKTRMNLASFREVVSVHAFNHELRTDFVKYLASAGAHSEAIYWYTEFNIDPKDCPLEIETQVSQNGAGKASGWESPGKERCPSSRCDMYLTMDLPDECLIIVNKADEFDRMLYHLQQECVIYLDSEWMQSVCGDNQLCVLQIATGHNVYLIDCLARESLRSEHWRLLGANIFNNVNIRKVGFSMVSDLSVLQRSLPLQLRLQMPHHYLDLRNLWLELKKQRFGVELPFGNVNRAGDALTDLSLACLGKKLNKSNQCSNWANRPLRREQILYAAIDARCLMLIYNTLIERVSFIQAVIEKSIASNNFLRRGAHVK

Results are given in words; binding and its absence hold for the method and conditions named. In cells and extracts the contact can be indirect. Here binding means that the protein was enriched with, or labelled near, the bait; the list need not be complete. A no says only that the protein was not detected with the bait.

The experiment has as its target Nibbler (Nbr), endogenous, with a Myc tag knocked in (Nbr^KI-Myc) (Drosophila melanogaster (endogenous in fly ovaries)) (UniProt Q9VIF1). In words: affinity purification with mass spectrometry; anti-c-Myc agarose beads on lysate of 400 ovaries of Nbr^KI-Myc against control flies; 2 h at 4°C, washed with TBS; LC-MS/MS; filter: more than ten peptides and PSM more than 5-fold enriched.

B1: Hen1, endogenous in ovaries (enzyme, UniProt Q7K175 1-391)
chain: MFSHKFICGSLTKMTETGITFDPPVYEQRYCATIQILEDARWKDQIKKVVEFGCAEMRFFQLMRRIETIEHIGLVDIDKSLLMRNLTSVNPLVSDYIRSRASPLKVQILQGNVADSSEELRDTDAVIAIELIEHVYDDVLAKIPVNIFGFMQPKLVVFSTPNSDFNVIFTRFNPLLPNGFRHEDHKFEWSRDEFKNWCLGIVEKYPNYMFSLTGVGNPPKEYESVGPVSQIAIFVRKDMLEMQLVNPLVSKPNIDKESIPYKLIHTVEYPFYVDTRTEKEKLWTEVQIELQRFKRQFESSEIEEGTYQDTCNMPIAFLLDRLEHVGATKERIEELLLENNLTVENECVLIVSSDQESEWSDPYKFSDRSSQDDALVDQEQEEERWDQGPES
As for B1, the binding result is “no binding”.

B2: Piwi, endogenous in ovaries (protein, UniProt Q9VKM1 1-843)
chain: MADDQGRGRRRPLNEDDSSTSRGSGDGPRVKVFRGSSSGDPRADPRIEASRERRALEEAPRREGGPTERKPWGDQYDYLNTRPAELVSKKGTDGVPVMLQTNFFRLKTKPEWRIVHYHVEFEPSIENPRVRMGVLSNHANLLGSGYLFDGLQLFTTRKFEQEITVLSGKSKLDIEYKISIKFVGFISCAEPRFLQVLNLILRRSMKGLNLELVGRNLFDPRAKIEIREFKMELWPGYETSIRQHEKDILLGTEITHKVMRTETIYDIMRRCSHNPARHQDEVRVNVLDLIVLTDYNNRTYRINDVDFGQTPKSTFSCKGRDISFVEYYLTKYNIRIRDHNQPLLISKNRDKALKTNASELVVLIPELCRVTGLNAEMRSNFQLMRAMSSYTRMNPKQRTDRLRAFNHRLQNTPESVKVLRDWNMELDKNVTEVQGRIIGQQNIVFHNGKVPAGENADWQRHFRDQRMLTTPSDGLDRWAVIAPQRNSHELRTLLDSLYRAASGMGLRIRSPQEFIIYDDRTGTYVRAMDDCVRSDPKLILCLVPNDNAERYSSIKKRGYVDRAVPTQVVTLKTTKNRSLMSIATKIAIQLNCKLGYTPWMIELPLSGLMTIGFDIAKSTRDRKRAYGALIASMDLQQNSTYFSTVTECSAFDVLANTLWPMIAKALRQYQHEHRKLPSRIVFYRDGVSSGSLKQLFEFEVKDIIEKLKTEYARVQLSPPQLAYIVVTRSMNTRFFLNGQNPPPGTIVDDVITLPERYDFYLVSQQVRQGTVSPTSYNVLYSSMGLSPEKMQKLTYKMCHLYYNWSGTTRVPAVCQYAKKLATLVGTNLHSIPQNALEKKFYYL
In the case of B2, the binding entry is “binds”.

B3: Papi, endogenous in ovaries (protein, UniProt Q9VQ91 1-576)
chain: MLRNTPFGATPTYKLLLGFGLCSLGGAMLYAYFKTRNDEEEADSGGQRPASGIRGQTEEQKPQKEVCLKIVVDNEHVPLIMGRGGSNIKLIEEKTLAKIRLRDKDSGHKFCDISGVPDAVKAARALLIKEIERAPVVKVELQVPQRLASKINGRGGELLQEIRSSSLAKLNIDLNGRNGKAKITIIGNQKQVNIARKMLDDQIEEDEELVRSMEEVEQRREPRRSPTNSIASSMYSSQTSLSSHTQPRDKLMASKGEGKPMEVYVSAVASPTKFWVQLIGPQSKKLDSMVQEMTSYYSSAENRAKHVLTAPYVGQIVAAVFKFDEKWYRAEIVDIMPNQYNPKEQVIDLYFVDYGDSEYISPADICELRTDFLTLRFQAVECFLANVKSTIQTEPITWPKSSIAKFEELTEVAHWRKLIARVVTYKERPRATTAVSAAAKEGTPLPGVELFDPADNSELNIADLMITQGFALPLDDSYPVRSRSSTPSSNSDSTIEELCVSNPVTPLTPHSPMSMSIDVDSITQAENEHLAQQLQHLQHKLNGNDIKNINPAKLTATDLENGNNNNASTTNGASAH
As for B3, the binding result is given as “no binding”.
